Holding throughout (test): co-IP; endogenous proteins in SCC15 cell lysates (wild-type or control cells), reciprocal IPs with antibodies to each partner, IP/Co-IP Kit (Proteintech), western blot; UBE1 with S100A14 also in shCAV2 SCC15 cells
(A western blot detects proteins with antibodies after separation by electrophoresis.)

The chains behind the UniProt entries cited, without tags or fusion partners.
UniProt P60903: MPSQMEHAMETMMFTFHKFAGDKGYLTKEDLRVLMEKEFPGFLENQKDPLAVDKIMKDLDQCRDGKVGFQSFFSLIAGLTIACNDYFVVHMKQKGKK
UniProt P22314: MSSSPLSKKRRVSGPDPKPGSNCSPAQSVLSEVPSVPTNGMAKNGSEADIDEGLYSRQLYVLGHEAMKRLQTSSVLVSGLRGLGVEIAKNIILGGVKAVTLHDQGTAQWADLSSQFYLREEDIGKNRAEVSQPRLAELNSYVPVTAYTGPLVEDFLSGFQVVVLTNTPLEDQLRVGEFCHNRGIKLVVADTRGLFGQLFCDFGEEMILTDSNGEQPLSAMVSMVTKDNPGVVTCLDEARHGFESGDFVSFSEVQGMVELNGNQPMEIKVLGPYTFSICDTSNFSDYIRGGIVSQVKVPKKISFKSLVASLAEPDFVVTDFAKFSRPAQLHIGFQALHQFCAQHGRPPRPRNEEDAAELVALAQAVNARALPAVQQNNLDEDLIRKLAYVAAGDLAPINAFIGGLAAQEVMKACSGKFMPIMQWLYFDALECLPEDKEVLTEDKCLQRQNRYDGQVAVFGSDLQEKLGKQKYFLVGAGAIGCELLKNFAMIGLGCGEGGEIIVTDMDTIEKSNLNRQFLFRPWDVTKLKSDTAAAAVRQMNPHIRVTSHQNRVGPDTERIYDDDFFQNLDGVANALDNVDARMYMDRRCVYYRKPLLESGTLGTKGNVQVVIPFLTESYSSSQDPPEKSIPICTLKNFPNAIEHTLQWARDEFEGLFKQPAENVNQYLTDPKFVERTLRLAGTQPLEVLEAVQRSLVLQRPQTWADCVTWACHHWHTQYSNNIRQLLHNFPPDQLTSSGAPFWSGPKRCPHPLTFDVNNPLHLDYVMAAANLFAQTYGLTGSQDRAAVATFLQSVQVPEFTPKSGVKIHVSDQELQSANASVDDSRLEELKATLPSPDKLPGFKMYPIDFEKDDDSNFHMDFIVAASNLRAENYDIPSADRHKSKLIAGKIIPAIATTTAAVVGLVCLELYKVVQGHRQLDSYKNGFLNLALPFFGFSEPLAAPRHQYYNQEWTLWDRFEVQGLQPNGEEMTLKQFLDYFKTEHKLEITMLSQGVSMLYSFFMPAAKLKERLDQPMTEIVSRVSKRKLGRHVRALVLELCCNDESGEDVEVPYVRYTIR
UniProt P26447: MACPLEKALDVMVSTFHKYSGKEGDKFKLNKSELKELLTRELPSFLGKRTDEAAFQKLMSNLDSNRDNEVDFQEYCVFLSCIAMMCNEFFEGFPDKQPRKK

Test [1] addresses T1, Caveolin-2 (CAV2) (human (endogenous in SCC15)) (UniProt P51636).
T1 sequence: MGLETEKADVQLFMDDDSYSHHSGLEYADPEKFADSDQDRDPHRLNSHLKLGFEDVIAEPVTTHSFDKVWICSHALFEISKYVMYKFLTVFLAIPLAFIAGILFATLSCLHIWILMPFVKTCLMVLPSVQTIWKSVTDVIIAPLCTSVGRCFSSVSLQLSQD

For test [2], the target named is T2, S100A14 (human (endogenous in SCC15)) (UniProt Q9HCY8).
T2 sequence: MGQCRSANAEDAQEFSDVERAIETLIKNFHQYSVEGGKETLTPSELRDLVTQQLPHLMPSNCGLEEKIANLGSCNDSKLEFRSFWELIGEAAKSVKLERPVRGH

The target in test [3] is T1, Caveolin-2 (CAV2) (human (endogenous in SCC15)). The source holds these as a separate data set.

Read-outs that look alike come from different tables or passages of the source. No constants are given. Whether binding was seen depends on the method and setting. In cells and extracts the contact can be indirect. Some binding calls cover weakened binding; strength is not graded here.

Regarding S100A10 (from UniProt P60903 1-97), in test [1], the binding result is “binds”.

Consider “E1 ubiquitin-activating enzyme UBE1 (from UniProt P22314 1-1058)”, for which, in test [2], the binding entry is recorded as “binds”.

Consider S100A4 (from UniProt P26447 1-101), for which the binding result in test [1] was “binds”.

B1: S100A7 (protein, UniProt P31151 1-101)
chain: MSNTQAERSIIGMIDMFHKYTRRDDKIEKPSLLTMMKENFPNFLSACDKKGTNYLADVFEKKDKNEDKKIDFSEFLSLLGDIATDYHKQSHGAAPCSGGSQ
On to B1, for which the binding result in test [3] was “binds”.

B2: S100A14 (protein, UniProt Q9HCY8 1-104)
chain: T2 sequence
As for B2, the binding result in test [3] is on record as “binds”.

Values taken from PMC9481523.
